# Hit rate of the full screen: of about 390,000 compounds, about 760 (0.19%) were called active. The inconclusive results got no clear call from the source; some entries with a clear call stand among them for comparison. The call rests on the fitted dose curve; in most records, active means well fitted inhibition curve with a large enough effect; inconclusive means small, poorly fitted or top-dose-only effect; inactive means flat fitted curve, though single readings scatter. Potencies beside an inconclusive call are fits to weak or partial responses and may not hold up.
# Experiment: qHTS for Inhibitors of Vif-A3F Interactions: qHTS; further: nearly all actives have a fitted effect of over 65% in size; on activity, negative = active: % of control where 0% means no effect
# Conditions: HeLa A3F-eYFP + Vif (tagged APOBEC3F with the HIV-1 protein that degrades it), YFP fluorescence increase; series mostly up to 46.1 µM; activity, negative = active: at the top concentration
# How it was run: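 Fluorescence increase (Ex 488/Em 500-530) after overnight compound treatment at 37 deg C flags inhibition of Vif-driven A3F-eYFP loss in stable HeLa A3F-eYFP/Vif cells seeded overnight beforehand.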
# Potency means the concentration at half of the fitted maximal effect.
SMILES,Potency,"activity, negative = active"
O=C(/C=C/Nc1ccc(Nc2ccccc2)cc1)c1cccs1,"inconclusive: 22.4 µM [inhibitor, single point]",–
CC(NC(=S)NCc1ccc(F)cc1)C12CC3CC(CC(C3)C1)C2 (centres undefined),"inconclusive: 35.5 µM [inhibitor, single point]",–
COC(=O)c1c(SCC(=O)Nc2cc(C)cc(C)c2)[nH]c2ccccc2c1=O,"inconclusive: 35.5 µM [inhibitor, single point]",–
CC(C)(C)c1nnc(NC(=S)Nc2ccccc2)s1,"inconclusive: 3.55 µM [inhibitor, single point]",–
CCOC(=O)c1cnc2ccc(C)cc2c1N(C)Cc1ccccc1,–,inactive: 0.648%
O=C(O)C1Nc2c(O)cccc2C2C=CCC12 (centres undefined),–,inactive: -8.3%
Cn1c(-c2ccccc2)cnc1NCc1ccc(-c2ccccc2)cc1,"inconclusive: 20 µM [inhibitor, single point]",–
CCC(C)NC(=O)Cc1cn(C)c2ccccc12 (centres undefined),"inconclusive: 3.16 µM [inhibitor, single point]",–
CCCCC(=O)Nc1cc([N+](=O)[O-])ccc1Cl,"inconclusive: 11.2 µM [inhibitor, partial curve]",–
CNc1cc([N+](=O)[O-])ccc1N/C=C/C(=O)c1ccc2c(c1)OCO2,"inconclusive: 5.62 µM [inhibitor, single point]",–
CCOC(=O)C/C(=N\Nc1ncnc2ccccc12)c1ccccc1,"inconclusive: 35.5 µM [inhibitor, single point]",–
Cc1cc2nc(-c3ccc(SCC(=O)Nc4ccc5c(c4)OCCO5)nc3)[nH]c2cc1C,"inconclusive: 25.1 µM [inhibitor, single point]",–
COc1ccc(NS(=O)(=O)c2cc([N+](=O)[O-])ccc2N/N=C\c2c(C)[nH]c3ccccc23)cc1,"inconclusive: 3.16 µM [inhibitor, partial curve, poor fit]",–
C[n+]1ccccc1/C=C1\Sc2ccccc2N1CCO,–,inactive: -12.5%
Cc1ccc(CSc2nc(-c3cccs3)ccc2C#N)cc1,–,inactive: -1.8%
COC(=O)c1cccc(Nc2nc(-c3ccncc3)nc3ccccc23)c1,"inconclusive: 35.5 µM [inhibitor, single point]",–
COc1cc(/C=C/C(=O)c2ccc([N+](=O)[O-])o2)ccc1O,"inconclusive: 28.2 µM [inhibitor, single point]",–
CCCC1CCC(=NNC(=O)OC(C)(C)C)CC1 (centres undefined),"inconclusive: 35.5 µM [inhibitor, single point]",–
CCn1c(=S)[nH]c2c(c1=O)C(C)(C)Cc1ccccc1-2,–,inactive: -16%
Cc1cccc(NC(=O)CN(C)C(=O)c2ccc3ccccc3n2)c1C,"inconclusive: 5.62 µM [inhibitor, single point]",–
Cc1cccc(C)c1NC(=S)N/N=C1\CC2CC=CC12 (centres undefined),"inconclusive: 28.2 µM [inhibitor, single point]",–
CCC1(c2ccccc2)NC(=O)N(CC(=O)Nc2cccc(S(=O)(=O)N3CCCCC3)c2)C1=O (centres undefined),"inconclusive: 5.62 µM [inhibitor, single point]",–

SMILES,Potency,"activity, negative = active"
O=[N+]([O-])c1ccc(O)c(C(C#Cc2ccccc2)N2CCOCC2)c1 (centres undefined),–,inactive: 2.98%
C/C(=N\NC(=O)c1ccc(CN2CCOCC2)cc1)c1ccc(NC(=O)c2ccccc2)cc1,"inconclusive: 3.55 µM [inhibitor, single point]",–
O=C(NC(NC(=S)Nc1c(Cl)cccc1Cl)C(Cl)(Cl)Cl)c1cccc([N+](=O)[O-])c1 (centres undefined),"inconclusive: 15.8 µM [inhibitor, single point]",–
COC(=O)CSC1=C(C#N)C(=O)NC2(CCCCC2)S1,–,inactive: 4.24%
C/C(=N/O)c1cc(C(C)(C)C)c(O)c(C(C)(C)C)c1,–,inactive: -7.28%
COc1ccc(CNC(=O)Cc2ccc(NC(=O)C3=C(C)OCCS3)cc2)cc1,–,inactive: -5.19%
O=C(N/N=C/c1cc(Br)c(Br)o1)c1cc2ccccc2o1,"inconclusive: 35.5 µM [inhibitor, single point]",–
CCOc1ccc(-c2nc(SCC(=O)Nc3ccc(C)c(C)c3)n3[nH]c(=O)cc3n2)cc1,–,inactive: -1.88%
COc1ccc(S(=O)(=O)c2c(Nc3ccc(F)cc3)sc(C(=O)c3ccc4c(c3)OCO4)c2N)cc1,–,inactive: 0.709%
COc1ccc(N2C(=S)NC(C)(C)CC2(C)c2ccc(OC(C)=O)cc2OC(C)=O)cc1 (centres undefined),"inconclusive: 14.1 µM [inhibitor, partial curve, poor fit]",–
CSc1nsc(/C=C/Nc2ccc(F)cc2F)c1C#N,"inconclusive: 22.4 µM [inhibitor, partial curve, poor fit]",–
COc1ccc(/C=C2\SC(=S)N(C(Cc3ccccc3)C(=O)O)C2=O)cc1 (centres undefined),–,inactive: -3.08%
CC1CCC(NC(=O)c2cc(Cl)nc3ccccc23)CC1 (centres undefined),"inconclusive: 12.6 µM [inhibitor, single point]",–
COc1ccc(-c2cn3c(n2)sc2cc(C(=O)NCCCN4CCCCCC4)ccc23)cc1,"inconclusive: 35.5 µM [inhibitor, single point]",–
CN(c1ccccc1)S(=O)(=O)c1cccc(NC(=O)CN2CCCc3ccccc32)c1,"inconclusive: 25.1 µM [inhibitor, single point]",–
COc1ccc(-c2nc3ccccc3o2)cc1NC(=O)C(C)Oc1ccc(Cl)cc1Cl (centres undefined),"inconclusive: 35.5 µM [inhibitor, single point]",–
COc1cc(NC(=S)N(C)C)c(OC)cc1Cl,"inconclusive: 2.82 µM [inhibitor, partial curve, poor fit]",–
COc1ccc(C(=O)N/N=C/c2cc3ccccc3[nH]c2=O)cc1,"inconclusive: 6.31 µM [inhibitor, partial curve, poor fit]",–
Cc1[nH][nH]c(=O)c1C(c1cc([N+](=O)[O-])ccc1O)c1c(C)[nH][nH]c1=O,–,inactive: 2.62%
Cc1cc(-n2ccnc2)n2c(nc3ccccc32)c1C#N,"inconclusive: 20 µM [inhibitor, single point]",–
N/C(Cc1nc2ccccc2s1)=N\O,"inconclusive: 14.1 µM [inhibitor, partial curve, poor fit]",–
CN(Cc1ccccc1)c1nc(N)nc(Cl)c1C=O,"inconclusive: 3.16 µM [inhibitor, single point]",–

# — PubChem BioAssay AID602313 (National Center for Advancing Translational Sciences (NCATS), 2012)
